In all, about 360,000 compounds went through this assay and about 7,500 (2.1%) were called active. The shares of active, inactive and inconclusive entries below differ from those in the screen. Calls follow the shape of the dose curve; as a rule, active = well fitted inhibition curve with a large enough effect; inconclusive = small, poorly fitted or top-dose-only effect, or effect the other way; inactive = flat fitted curve, though single readings scatter. Potencies beside an inconclusive call are fits to weak or partial responses and may not hold up.
Assay: Nrf2 qHTS screen for inhibitors; also: nearly all actives have a fitted effect of over 60% in size
Conditions: A549 ARE-Fluc reporter, luciferase luminescence, 18-24 h; activity change, negative = inhibition: at 46 µM (top of the series)
Summary of the method: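 Nrf2 function is reported as luminescence of an ARE-controlled luciferase in A549 cells. Compounds were tested at several concentrations, and a CellTiter-Fluor read on the same wells flagged cytotoxicity.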
% is scaled to controls: 0 for no effect and ±100 for the full control effect; potency is read from the fitted curve at half-maximal effect.

| Structure (SMILES) | activity change, negative = inhibition | Potency |
| --- | --- | --- |
| COc1cccc(-n2c(Cc3cc(=O)[nH]c(=O)[nH]3)nnc2SCC(=O)N2CCCCC2)c1 | inactive: 9.75% | – |
| Cc1cc(Cl)ccc1OC(C)C(=O)Nc1ccc(S(=O)(=O)N2CCOCC2)cc1 (centres undefined) | – | inconclusive: 20.6 µM [falling, single point] |
| CCc1cccc(OCC(=O)Nc2ccc(C(=O)O)cc2NC(=O)COc2cccc(CC)c2)c1 | – | inconclusive: 23.1 µM [falling, partial curve, poor fit] |
| CCc1nnc(NC(=O)CSc2nnc(-c3ccccc3O)o2)s1 | – | inconclusive: 29.1 µM [falling, partial curve, poor fit] |
| COc1cc(OC)c(C2CC(=O)N3CN(c4ccc(C)cc4)CSC3=C2C#N)cc1OC (centres undefined) | – | inconclusive: 25.9 µM [activator, single point] |
| O=C(CCN1C(=O)/C(=C/C=C/c2ccccc2)SC1=S)Nc1ccccn1 | – | inconclusive: 29.1 µM [falling, single point] |
| CCCCN1C(=O)c2[nH]nc(-c3ccccc3O)c2C1c1ccc(OCc2ccccc2)cc1 (centres undefined) | – | active: 14.6 µM |
| O=C(c1ccco1)N(Cc1cc2ccccc2[nH]c1=O)C1CCCCC1 | inactive: 22.2% | – |
| COc1cc2c(cc1OC)CN(C(=O)CCOc1ccccc1)CC2 | – | inconclusive: 23.1 µM [activator, partial curve] |
| Cc1ccc(NC(=O)C(=Cc2ccc(C(=O)O)cc2)C(=O)Nc2ccc(C)cc2C)c(C)c1 | – | inconclusive: 29.1 µM [falling, single point] |
| Cc1ccc(NC(=O)CNCc2cccs2)cc1Br | inactive: 22.4% | – |
| CC1N(C(=O)N(C)C)CCN1S(=O)(=O)c1ccccc1 (centres undefined) | – | inconclusive: 20.6 µM [activator, single point] |
| COc1ccc(-n2c(/C=C/c3c(C)[nH]c4ccccc34)nc3ccccc3c2=O)cc1 | – | inconclusive: 6.51 µM [falling, single point] |
| Cc1ncc(CO)c(CNc2ccc(Oc3ccccc3)cc2)c1O | – | inconclusive: 23.1 µM [falling, single point] |
| CCn1c(SCC(=O)NCc2cccs2)nnc1-c1ccncc1 | – | inconclusive: 7.31 µM [falling, single point] |
| Cc1ccc(NC(=S)N(CCCN2CCC(C)CC2)Cc2ccco2)cc1C | – | inconclusive: 11.6 µM [activator, partial curve] |
| COc1cccc(CNc2nccn(-c3ccc(OC)c(OC)c3)c2=O)c1 | – | inconclusive: 29.1 µM [activator, single point] |
| Cc1ccccc1C(=O)Nc1nnc(SCC(=O)NCc2ccco2)s1 | – | inconclusive: 1.64 µM [activator, partial curve] |
| Cc1cc2cc(CCNC(=O)c3cccs3)c(=O)[nH]c2cc1C | – | inconclusive: 7.31 µM [activator, partial curve] |
| Cc1ccc(C)c(N2CCN(C(=O)CN3C(=O)c4ccccc4C3=O)CC2)c1 | – | inconclusive: 32.6 µM [falling, partial curve, poor fit] |
| CC1=C(C(=O)OC(C)C)C(C)C(C(=O)OC(C)C)=C(C)N1 | – | inconclusive: 29.1 µM [falling, single point] |
| CS(=O)(=O)c1ccc2c(c1)SC1=NC(=O)/C(=C/c3ccco3)C(=N)N12 | – | inconclusive: 29.1 µM [activator, single point] |

In the list so far, these contain two or more sulfur atoms:

| Structure (SMILES) | activity change, negative = inhibition | Potency |
| --- | --- | --- |
| CCc1nnc(NC(=O)CSc2nnc(-c3ccccc3O)o2)s1 | – | inconclusive: 29.1 µM [falling, partial curve, poor fit] |
| O=C(CCN1C(=O)/C(=C/C=C/c2ccccc2)SC1=S)Nc1ccccn1 | – | inconclusive: 29.1 µM [falling, single point] |
| CCn1c(SCC(=O)NCc2cccs2)nnc1-c1ccncc1 | – | inconclusive: 7.31 µM [falling, single point] |
| Cc1ccccc1C(=O)Nc1nnc(SCC(=O)NCc2ccco2)s1 | – | inconclusive: 1.64 µM [activator, partial curve] |
| CS(=O)(=O)c1ccc2c(c1)SC1=NC(=O)/C(=C/c3ccco3)C(=N)N12 | – | inconclusive: 29.1 µM [activator, single point] |

Going on with the list:

| Structure (SMILES) | activity change, negative = inhibition | Potency |
| --- | --- | --- |
| CCOc1cc(C(=S)N2CCOCC2)ccc1OC(=O)c1ccc(C)cc1 | – | inconclusive: 18.4 µM [falling, single point] |
| Cc1ccc(S(=O)(=O)Oc2ccc(/C=N/NC(=O)c3nn(C)cc3[N+](=O)[O-])cc2)cc1 | – | inconclusive: 25.9 µM [activator, partial curve, poor fit] |
| O=C(Nc1ccc(CN2CCOCC2)cc1)c1ccc(-c2ccc(Br)cc2)o1 | – | inconclusive: 18.4 µM [falling, single point] |
| CN1CCN(c2nc3ccccc3nc2C(C#N)C(=O)OC2CCCCC2)CC1 (centres undefined) | inactive: 8.04% | – |
| COCCNC(=S)NCCCNc1nc2cc3c(cc2cc1C#N)OCO3 | inactive: 2.08% | – |
| Cc1ccc(CNC(=O)c2cc(C3CC3)nc3c2cnn3C(C)C)cc1 | – | inconclusive: 29.1 µM [falling, single point] |
| O=C(NC(=S)N1CCc2ccccc21)c1ccc(Br)o1 | – | inconclusive: 6.51 µM [activator, full curve, poor fit] |
| CCOc1cc(C)cc2oc(=O)cc(-c3ccccc3)c12 | – | inconclusive: 20.6 µM [falling, single point] |
| CCC1CC=CC2C1C(=O)N(Cc1ccccc1)C2c1ccc2ccccc2c1 (centres undefined) | – | inconclusive: 29.1 µM [falling, single point] |
| C=C(C)C1CC=C(C)/C(=N/NC(=O)COc2ccc(C)cc2)C1 (centres undefined) | inactive: 13% | – |
| COc1ccc([C@H]2CC(=O)C=C(c3ccc4ccn(C)c4c3)C2)cc1 | – | inconclusive: 3.66 µM [activator, single point] |
| COc1ccc(S(=O)(=O)NCc2cccnc2)cc1NC(=O)c1ccccc1 | inactive: -2.4% | – |
| Nc1cc(=O)[nH]c(SCC(=O)Nc2cc(S(=O)(=O)N3CCOCC3)ccc2Cl)n1 | – | inconclusive: 16.4 µM [activator, partial curve, poor fit] |
| O=C(Nc1cccc(Cl)c1)Nc1csc([N+](=O)[O-])c1 | – | inconclusive: 16.4 µM [falling, single point] |
| Cc1c(OCC(=O)NCCCN2CCCC2=O)ccc2c3c(c(=O)oc12)CCCC3 | – | inconclusive: 6.51 µM [falling, single point] |
| COc1cccc(N2CCN(Cc3nc4scc(-c5ccccc5)c4c(=O)[nH]3)CC2)c1 | inactive: -24.3% | – |
| COc1ccc(OCC(=O)Nc2cc(-c3nn(C)c(=O)c4ccccc34)ccc2OC)cc1 | – | active: 23.1 µM |
| Cc1cc(NC(=O)CSCC(=O)Nc2cccc(S(=O)(=O)N3CCCCCC3)c2)no1 | – | inconclusive: 16.4 µM [falling, partial curve, poor fit] |
| Cc1ccccc1OCCSc1nc(N(C)C)nc(N(C)C)n1 | – | inconclusive: 23.1 µM [activator, single point] |
| Clc1cccc(OCc2nc(-c3ccncc3)n[nH]2)c1 | – | active: 20.6 µM |
| CCOc1ccc(C(=O)OCc2cc(=O)n3cc(C)sc3n2)cc1 | – | inconclusive: 1.3 µM [falling, partial curve, poor fit] |
| CC(C)(C)c1ccc(OCCn2c(CCNC(=O)C3CCCCC3)nc3ccccc32)cc1 | – | active: 18.4 µM |

| Structure (SMILES) | activity change, negative = inhibition | Potency |
| --- | --- | --- |
| O=[N+]([O-])c1cccc(N/N=C/c2ccc(N3CCOCC3)cc2)c1 | – | inconclusive: 25.9 µM [activator, partial curve] |
| CC[C@]1(C(=O)OC)[C@H]2C(=O)N(C)C(=O)[C@H]2[C@H]2CN=C(SCc3ccc(C(=O)OC)cc3)N21 | – | inconclusive: 11.6 µM [activator, partial curve, poor fit] |
| O=c1[nH]c(Cc2ccccn2)nc2scc(-c3ccc(Cl)cc3)c12 | – | inconclusive: 29.1 µM [falling, single point] |
| Cc1cccc(C(=O)Nc2ccc3oc(-c4ccncc4)nc3c2)c1 | – | active: 9.2 µM |
| Cc1occc1-c1nnc(SCC(=O)N(C)C)o1 | – | inconclusive: 8.2 µM [activator, partial curve, poor fit] |
| CCNC(=S)/N=C(/Nc1ccccc1)Nc1nc(C)cc(C)n1 | – | inconclusive: 29.1 µM [falling, single point] |
| COCCCn1c(SCc2nnc(-c3ccc(OC)c(OC)c3)o2)nc2ccccc2c1=O | – | inconclusive: 25.9 µM [falling, single point] |
| COc1ccc(C)cc1-n1c(-c2ccc(C)cc2)cc2c1CC(C)(C)CC2=O | – | inconclusive: 3.66 µM [activator, partial curve, poor fit] |
| CCOc1ccc(CCNC(=O)CN2C(=O)NC3(CCCCCC3)C2=O)cc1OCC | inactive: 2.15% | – |
| CC(C)c1onc(C(=O)NCCc2ccccc2)c1[N+](=O)[O-] | – | inconclusive: 29.1 µM [activator, single point] |
| COc1ccc2c(c1OC)C(=O)N(c1ccc(O)cc1)C2 | – | inconclusive: 1.16 µM [activator, full curve, poor fit] |
| CN(C)C(=S)Nc1cccc(-c2n[nH]c(=S)o2)c1 | – | inconclusive: 1.84 µM [activator, partial curve] |
| CSCCC(NS(=O)(=O)c1cccc(C(F)(F)F)c1)C(=O)N(C)Cc1ccc2c(c1)OCCO2 (centres undefined) | – | inconclusive: 3.66 µM [falling, full curve, poor fit] |
| COc1ccc(CCN(C)Cc2c(O)ccc3ccccc23)cc1OC | – | inconclusive: 13 µM [activator, partial curve, poor fit] |
| Cc1ccccc1CNC(=O)c1ccc2nc(N3CCOCC3)sc2c1 | – | inconclusive: 23.1 µM [falling, single point] |
| CCNc1oc(-c2ccc(COc3ccc(Cl)cc3)o2)nc1C#N | – | inconclusive: 16.4 µM [falling, single point] |
| CN=C(Nc1cc(Cl)ccc1Cl)SC1CC(=O)N(c2ccc(C(=O)OC)cc2)C1=O (centres undefined) | – | inconclusive: 16.4 µM [falling, single point] |
| O=C(CSc1nc2ccccc2c(=O)n1CCCN1CCOCC1)N1CCN(c2ccccc2)CC1 | – | inconclusive: 23.1 µM [falling, single point] |
| Cc1ccc(N=C2NC(=O)/C(=C\c3ccsc3)S2)c(C)c1 | inactive: -15% | – |
| Cc1ccc(-c2cc3nc(C)cc(C)n3n2)cc1 | – | inconclusive: 8.2 µM [activator, partial curve] |

From PubChem BioAssay AID504444 (National Center for Advancing Translational Sciences (NCATS), 2011)
